From patent US20070178516A1, “Self-addressable self-assembling microelectronic integrated systems, component devices, mechanisms, methods, and procedures for molecular biological analysis and diagnostics” (NANOGEN, INC., priority 1993, published 2007)
Some compounds share one wording; it may come from a single statement.

Experiments:
[1] = tested on: ATA5 capture oligonucleotide; assay: Electronic accumulation and hybridization of btrRCA5 in test buffers; conditions: for support of sequence specific electronic hybridization: complementary versus non-complementary capture
[2] = tested on: DNA1 / PNA1 capture oligonucleotides; assay: Hybridization of phosphodiester-linked oligonucleotides compared to PNA analogues; conditions: 50 mM buffer

SMILES: N[C@@H](CS)C(=O)O [Cysteine]
- support of sequence specific electronic hybridization [1]: difficult to evaluate because of poor signal accumulation

SMILES: NCCC(=O)O [β-Alanine]
- support of sequence specific electronic hybridization [1]: neither GABA, b-alanine, nor glycine was capable of supporting sequence specific hybridization

SMILES: NCC(=O)O [glycine]
- support of sequence specific electronic hybridization [1]: neither GABA, b-alanine, nor glycine was capable of supporting sequence specific hybridization

SMILES: NCCCC(=O)O [GABA, g-amino-butyric acid]
- DNA:DNA electronic hybridization ([2]; 200 nA): no hybridization was observed
- PNA:DNA electronic hybridization ([2]; 200 nA): Hybridization in GABA was seen
- DNA:DNA electronic hybridization ([2]; 500 nA): lack of hybridization
- PNA:DNA electronic hybridization ([2]; 500 nA): lack of hybridization
- support of sequence specific electronic hybridization [1]: neither GABA, b-alanine, nor glycine was capable of supporting sequence specific hybridization

SMILES: N[C@@H](Cc1c[nH]cn1)C(=O)O [Histidine]
- PNA:DNA electronic hybridization ([2]; 200 nA): occurs at roughly equal efficiencies at either current
- DNA:DNA electronic hybridization ([2]; 500 nA): only occurs well at 500 nA
- PNA:DNA electronic hybridization ([2]; 500 nA): occurs at roughly equal efficiencies at either current
- nonspecific signal as compared to the amount of material transported [1]: 2.2%
- support of sequence specific electronic hybridization [1]: demonstrated specific hybridization
- transported (fluorescent signal present at completion of electronic targeting) ([1]; value +/− SEM, 50 mM buffer, 10 nM btrRCA5, 500 nA 30 sec): 533 +/− 65
